Assay results from publication PMC12697864, “cGAS Inhibits ALDH2 to Suppress Lipid Droplet Function and Regulate MASLD Progression” (Advanced Science, 2025).
Results are given in words; binding and its absence hold for the method and conditions named. In cells and extracts the contact can be indirect. Some binding calls cover weakened binding; strength is not graded here.

Sequences of proteins named here, by UniProt entry; tags and fusion partners are left off. A change or cut given only in a name is not applied to a line headed by its entry. A line that says so, or that is headed by a name, gives the form on record, which may keep a tag or linker. Residues count along the entry.
UniProt Q8N884: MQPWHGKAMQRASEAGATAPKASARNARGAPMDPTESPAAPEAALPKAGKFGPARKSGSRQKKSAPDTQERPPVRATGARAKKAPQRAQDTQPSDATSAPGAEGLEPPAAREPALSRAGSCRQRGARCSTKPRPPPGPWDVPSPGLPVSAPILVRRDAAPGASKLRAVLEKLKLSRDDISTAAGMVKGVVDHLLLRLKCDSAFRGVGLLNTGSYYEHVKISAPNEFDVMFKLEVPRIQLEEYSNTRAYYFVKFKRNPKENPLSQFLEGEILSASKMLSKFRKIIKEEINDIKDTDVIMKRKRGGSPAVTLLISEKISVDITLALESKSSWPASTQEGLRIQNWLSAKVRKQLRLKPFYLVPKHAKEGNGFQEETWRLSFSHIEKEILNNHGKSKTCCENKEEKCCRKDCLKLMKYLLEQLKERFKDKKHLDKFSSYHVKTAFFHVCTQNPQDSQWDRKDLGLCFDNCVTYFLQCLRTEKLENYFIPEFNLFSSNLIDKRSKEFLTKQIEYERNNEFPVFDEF
ΔMito-cGAS, mitochondria-localization signal-deleted cGAS mutant (aa161-190 deletion) (Q8N884, form named): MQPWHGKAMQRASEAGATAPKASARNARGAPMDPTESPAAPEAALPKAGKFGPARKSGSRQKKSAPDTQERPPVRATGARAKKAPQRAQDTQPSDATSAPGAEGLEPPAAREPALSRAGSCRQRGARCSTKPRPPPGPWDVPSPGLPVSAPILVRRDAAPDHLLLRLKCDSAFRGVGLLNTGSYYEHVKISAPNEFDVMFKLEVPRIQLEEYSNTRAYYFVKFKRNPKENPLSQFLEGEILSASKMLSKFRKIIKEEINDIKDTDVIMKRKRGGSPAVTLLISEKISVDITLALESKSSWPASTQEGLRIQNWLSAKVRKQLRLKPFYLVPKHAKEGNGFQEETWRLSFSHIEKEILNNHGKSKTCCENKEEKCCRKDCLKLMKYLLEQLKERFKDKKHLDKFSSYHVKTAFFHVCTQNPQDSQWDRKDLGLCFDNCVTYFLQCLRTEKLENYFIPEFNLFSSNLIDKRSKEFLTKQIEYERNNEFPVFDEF
ALDH2 in cells (Figure S3) (P05091, residues 18-517): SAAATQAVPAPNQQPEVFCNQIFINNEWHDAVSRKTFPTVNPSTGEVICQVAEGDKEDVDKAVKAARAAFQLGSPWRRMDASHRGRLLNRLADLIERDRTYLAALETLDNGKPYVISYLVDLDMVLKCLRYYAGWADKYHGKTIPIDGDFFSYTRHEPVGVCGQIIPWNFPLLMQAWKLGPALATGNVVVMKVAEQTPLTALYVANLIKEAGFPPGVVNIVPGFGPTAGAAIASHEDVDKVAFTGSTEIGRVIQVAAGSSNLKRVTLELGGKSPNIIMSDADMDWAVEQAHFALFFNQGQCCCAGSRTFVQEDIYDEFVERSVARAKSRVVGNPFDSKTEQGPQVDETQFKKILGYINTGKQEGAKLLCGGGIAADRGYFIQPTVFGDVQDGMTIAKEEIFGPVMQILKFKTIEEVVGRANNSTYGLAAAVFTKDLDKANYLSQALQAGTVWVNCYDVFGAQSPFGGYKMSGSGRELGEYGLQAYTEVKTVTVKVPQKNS
ALDH2-E504K, transfected in HEK293T (P05091, form named): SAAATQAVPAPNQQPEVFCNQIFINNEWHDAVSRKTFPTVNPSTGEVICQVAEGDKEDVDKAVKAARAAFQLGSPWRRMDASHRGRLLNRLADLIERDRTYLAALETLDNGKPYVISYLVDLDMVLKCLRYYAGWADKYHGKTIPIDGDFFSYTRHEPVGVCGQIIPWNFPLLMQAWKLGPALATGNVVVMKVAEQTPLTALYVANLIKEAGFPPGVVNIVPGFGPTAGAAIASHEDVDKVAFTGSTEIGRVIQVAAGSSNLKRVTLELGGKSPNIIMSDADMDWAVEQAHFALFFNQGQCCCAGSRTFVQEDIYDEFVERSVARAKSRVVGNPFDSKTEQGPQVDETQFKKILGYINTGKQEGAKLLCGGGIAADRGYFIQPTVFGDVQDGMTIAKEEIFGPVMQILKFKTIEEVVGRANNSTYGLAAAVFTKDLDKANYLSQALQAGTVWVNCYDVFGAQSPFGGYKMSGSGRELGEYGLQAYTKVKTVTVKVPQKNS

Legend:
[1] = biological target: cGAS stably expressed in HepG2 cells (pLenti-blast-cGAS) (human) (UniProt Q8N884); assay: co-IP; HA-IP from HepG2 cells stably expressing cGAS, treated with FFA for the indicated time points (Figure 6C) or with ISD90 (Figure S5F,G)
[2] = biological target: HA-cGAS, transfected in HEK293T (human) (UniProt Q8N884); assay: co-IP; HEK293T transfected with the indicated DNA constructs, collected 48 h post-transfection; HA-IP and immunoblot (Figure 3E; Figure 1K)
[3] = biological target: ALDH2 in cells (Figure S3) (human) (UniProt P05091); assay: co-IP; binding of WT-cGAS and cGAS mutants to ALDH2 in cells (Figure S3A-F); cell line, tags and direction of the IP not shown
[4] = biological target: ALDH2 in BPH1 cells (Figure S5E) (human) (UniProt P05091); assay: co-IP; BPH1 cells with ISD90 stimulation (Figure S5E); constructs and direction of the IP not shown
[5] = biological target: endogenous ALDH2 of THP-1 cells (human (endogenous in THP-1)) (UniProt P05091); assay: co-IP; THP-1 whole-cell lysate incubated with an ALDH2-specific antibody overnight at 4 °C, protein A/G beads, washed with NETN buffer; endogenous proteins
[6] = biological target: ALDH2-WT re-expressed in ALDH2-depleted THP-1 cells (human) (UniProt P05091); assay: co-IP; Flag-IP from THP-1 cells depleted of ALDH2 and re-expressing ALDH2-WT, treated with ISD90 for the indicated time points

| Substance | binding [3] | also measured |
| --- | --- | --- |
| ALDH2 in HepG2 cells stably expressing cGAS (from UniProt P05091 18-517) | – | binding [1]: binds |
| ALDH2-E504K, transfected in HEK293T (from UniProt P05091 18-517) | – | binding [2]: binds |
| WT-ALDH2, transfected in HEK293T (from UniProt P05091 18-517) | – | binding [2]: binds |
| WT-cGAS, expressed in cells (Figure S3) (from UniProt Q8N884 1-522) | binds | – |
| cGAS GSAA (G212AS213A), enzymatically deficient (from UniProt Q8N884 1-522) | binds | – |
| cGAS K173A (from UniProt Q8N884 1-522) | binds | – |
| cGAS K285A (from UniProt Q8N884 1-522) | binds | – |
| cGAS K414A (from UniProt Q8N884 1-522) | binds | – |
| cGAS KKEA (K173E/R176E/K407E/K411A), DNA-binding deficient (from UniProt Q8N884 1-522) | binds | – |
| cGAS R255E, nucleosome-binding deficient (from UniProt Q8N884 1-522) | binds | – |
| cGAS in BPH1 cells (Figure S5E) (from UniProt Q8N884 1-522) | – | binding [4]: binds |
| endogenous cGAS of THP-1 cells (from UniProt Q8N884 1-522) | – | binding [5]: binds; binding [6]: binds |
| ΔMito-cGAS, mitochondria-localization signal-deleted cGAS mutant (aa161-190 deletion) (from UniProt Q8N884 1-522) | binds | – |
